# According to the supplement of paper PMC8728848:
# The list shows a part of the results.
# B1: PX14343C-bfa-541-26-541 (Bacteroides fragilis) (protein)
# chain: KAPLDEIADDSFWSDETLVKYYVNDLYSEISVDGLQLQENRSDNSVSAQRDKYRASWFKFNYDMVSASDPQDDDVWEDYYVKVRKCNRFFERIGTSTIEESEKSRLTGEVHFLRAMFYFEMVKRYGGVILLDKVLTMEDNWEIPRSSEKECYDFILEDLKKATEMLPASYGSREKGRATKGAAYALKSRVELYDKRYEDVIKSCAEVYKLGYELVDGTTPEKYRSIWWTTNKDNKEIIFDVQYKSPDVYNNMMVCNMVTYINDKYGDRGWGGLGPTQELIDAFEMADGTPATQYSQAPADQVFDINTCGIYEGREPRFYANIVFHGSQIFFNADKGAVTVDRYLMDTPDKGDGSLTGYNVWKWIDYDNYNYPYAGAGSPDFSTNWIILRYAEIYLNDAEARLETGDVEGARKAVNMIRQRVGLPDLTESDPEKLRELIRKERRIEFAFEEQRFYDVRRWKIGPETQTTLHGVRFVSPTEFKVTKTDIRTWNDRLYLTPVPHDEIVRSSVLKQNLGY
# What was measured:
# Experiment in all cases: glycan array binding signal (z-score within array); higher = stronger binding
# Conditions in all cases: glycan notation: IUPAC condensed, linker removed
# [1] = biological target: Neu5Ac(a2-6)Gal(b1-4)GlcNAc(b1-2)Man(a1-3)[Neu5Ac(a2-3)Gal(b1-4)GlcNAc(b1-2)Man(a1-6)]Man(b1-4)GlcNAc(b1-4)GlcNAc
# Method in brief: (§1)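 The Consortium for Functional Glycomics database supplied 3228 glycan arrays, of which those lacking an available protein sequence were dropped. The binding signal, a within-array Z-score, was averaged across arrays of the same protein sequence and across linkers. Negative scores can be read as non-binding.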
# [2] = biological target: Neu5Ac(a2-6)Gal(b1-4)GlcNAc(b1-2)Man(a1-3)[Neu5Ac(a2-6)Gal(b1-4)GlcNAc(b1-2)Man(a1-6)]Man(b1-4)GlcNAc(b1-4)GlcNAc
# Method in brief: as §1
# [3] = biological target: Neu5Ac(a2-6)Gal(b1-4)GlcNAc(b1-2)Man(a1-3)[Neu5Ac(a2-6)Gal(b1-4)GlcNAc(b1-2)Man(a1-6)]Man(b1-4)GlcNAc(b1-4)[Fuc(a1-6)]GlcNAc
# Method in brief: as §1
# [4] = biological target: Neu5Ac(a2-6)Gal(b1-4)GlcNAc(b1-2)Man(a1-6)Man(b1-4)GlcNAc(b1-4)GlcNAc
# Method in brief: as §1
# [5] = biological target: Neu5Ac(a2-6)Gal(b1-4)GlcNAc(b1-2)Man(a1-6)[Gal(b1-4)GlcNAc(b1-2)Man(a1-3)]Man(b1-4)GlcNAc(b1-4)GlcNAc
# Method in brief: as §1
# [6] = biological target: Neu5Ac(a2-6)Gal(b1-4)GlcNAc(b1-2)Man(a1-6)[GlcNAc(b1-2)Man(a1-3)]Man(b1-4)GlcNAc(b1-4)GlcNAc
# Method in brief: as §1
# [7] = biological target: Neu5Ac(a2-6)Gal(b1-4)GlcNAc(b1-2)Man(a1-6)[Man(a1-3)]Man(b1-4)GlcNAc(b1-4)GlcNAc
# Method in brief: as §1
# [8] = biological target: Neu5Ac(a2-6)Gal(b1-4)GlcNAc(b1-2)[Neu5Ac(a2-6)Gal(b1-4)GlcNAc(b1-4)]Man(a1-3)[GlcNAc(b1-4)][Neu5Ac(a2-6)Gal(b1-4)GlcNAc(b1-2)[Neu5Ac(a2-6)Gal(b1-4)GlcNAc(b1-6)]Man(a1-6)]Man(b1-4)GlcNAc(b1-4)GlcNAc
# Method in brief: as §1
# [9] = biological target: Neu5Ac(a2-6)Gal(b1-4)GlcNAc(b1-2)[Neu5Ac(a2-6)Gal(b1-4)GlcNAc(b1-4)]Man(a1-3)[GlcNAc(b1-4)][Neu5Ac(a2-6)Gal(b1-4)GlcNAc(b1-4)Man(a1-6)]Man(b1-4)GlcNAc(b1-4)GlcNAc
# Method in brief: as §1
# [10] = biological target: Neu5Ac(a2-6)Gal(b1-4)GlcNAc(b1-2)[Neu5Ac(a2-6)Gal(b1-4)GlcNAc(b1-6)]Man(a1-6)[Neu5Ac(a2-6)Gal(b1-4)GlcNAc(b1-2)Man(a1-3)][GlcNAc(b1-4)]Man(b1-4)GlcNAc(b1-4)GlcNAc
# Method in brief: as §1
# [11] = biological target: Neu5Ac(a2-6)Gal(b1-4)GlcNAc(b1-3)Gal(b1-3)GlcNAc
# Method in brief: as §1
# [12] = biological target: Neu5Ac(a2-6)Gal(b1-4)GlcNAc(b1-3)Gal(b1-4)GlcNAc
# Method in brief: as §1
# [13] = biological target: Neu5Ac(a2-6)Gal(b1-4)GlcNAc(b1-3)Gal(b1-4)GlcNAc(b1-2)Man(a1-3)[Neu5Ac(a2-6)Gal(b1-4)GlcNAc(b1-3)Gal(b1-4)GlcNAc(b1-2)Man(a1-6)]GalNAc
# Method in brief: as §1
# [14] = biological target: Neu5Ac(a2-6)Gal(b1-4)GlcNAc(b1-3)Gal(b1-4)GlcNAc(b1-3)Gal(b1-4)GlcNAc
# Method in brief: as §1
# [15] = biological target: Neu5Ac(a2-6)Gal(b1-4)GlcNAc(b1-3)Gal(b1-4)GlcNAc(b1-3)Gal(b1-4)GlcNAc(b1-2)Man(a1-3)[Neu5Ac(a2-6)Gal(b1-4)GlcNAc(b1-3)Gal(b1-4)GlcNAc(b1-3)Gal(b1-4)GlcNAc(b1-2)Man(a1-6)]GalNAc
# Method in brief: as §1
# [16] = biological target: Neu5Ac(a2-6)Gal(b1-4)GlcNAc(b1-3)Gal(b1-4)GlcNAc(b1-3)GalNAc
# Method in brief: as §1
# [17] = biological target: Neu5Ac(a2-6)Gal(b1-4)GlcNAc(b1-3)Gal(b1-4)GlcNAc(b1-3)[Neu5Ac(a2-6)Gal(b1-4)GlcNAc(b1-3)Gal(b1-4)GlcNAc(b1-6)]GalNAc
# Method in brief: as §1
# [18] = biological target: Neu5Ac(a2-6)Gal(b1-4)GlcNAc(b1-3)Gal(b1-4)GlcNAc(b1-6)[Gal(b1-3)]GalNAc
# Method in brief: as §1
# [19] = biological target: Neu5Ac(a2-6)Gal(b1-4)GlcNAc(b1-3)Gal(b1-4)[Fuc(a1-3)]GlcNAc(b1-3)Gal(b1-4)[Fuc(a1-3)]GlcNAc
# Method in brief: as §1
# [20] = biological target: Neu5Ac(a2-6)Gal(b1-4)GlcNAc(b1-3)GalNAc
# Method in brief: as §1
# [21] = biological target: Neu5Ac(a2-6)Gal(b1-4)GlcNAc(b1-3)[Neu5Ac(a2-6)Gal(b1-4)GlcNAc(b1-6)]GalNAc
# Method in brief: as §1
# [22] = biological target: Neu5Ac(a2-6)Gal(b1-4)GlcNAc(b1-6)GalNAc
# Method in brief: as §1
# [23] = biological target: Neu5Ac(a2-6)Gal(b1-4)GlcNAc(b1-6)[Gal(b1-3)GlcNAc(b1-3)]Gal(b1-4)Glc
# Method in brief: as §1
# [24] = biological target: Neu5Ac(a2-6)Gal(b1-4)GlcNAc(b1-6)[Gal(b1-3)]GalNAc
# Method in brief: as §1
# [25] = biological target: Neu5Ac(a2-6)Gal(b1-4)GlcNAc6S
# Method in brief: as §1
# Neu5Ac(a2-6)GalNAc = biological target: Neu5Ac(a2-6)GalNAc
# Method in brief: as §1
# [26] = biological target: Neu5Ac(a2-6)GalNAc(b1-4)GlcNAc
# Method in brief: as §1
# [27] = biological target: Neu5Ac(a2-6)GalNAc(b1-4)GlcNAc6S
# Method in brief: as §1
# [28] = biological target: Neu5Ac(a2-6)GlcNAc(b1-4)GlcNAc
# Method in brief: as §1
# [29] = biological target: Neu5Ac(a2-6)GlcNAc(b1-4)GlcNAc(b1-4)GlcNAc
# Method in brief: as §1
binder,measurement,setting,value
B1,glycan array binding signal (z-score),[1],0.23
same,glycan array binding signal (z-score),[2],-0.207
same,glycan array binding signal (z-score),[3],-0.69
same,glycan array binding signal (z-score),[4],1.21
same,glycan array binding signal (z-score),[5],-0.665
same,glycan array binding signal (z-score),[6],-0.485
same,glycan array binding signal (z-score),[7],-0.792
same,glycan array binding signal (z-score),[8],-0.339
same,glycan array binding signal (z-score),[9],0.572
same,glycan array binding signal (z-score),[10],1.77
same,glycan array binding signal (z-score),[11],-1.08
same,glycan array binding signal (z-score),[12],-0.821
same,glycan array binding signal (z-score),[13],1.53
same,glycan array binding signal (z-score),[14],-0.192
same,glycan array binding signal (z-score),[15],1.05
same,glycan array binding signal (z-score),[16],-0.036
same,glycan array binding signal (z-score),[17],0.727
same,glycan array binding signal (z-score),[18],-0.862
same,glycan array binding signal (z-score),[19],0.149
same,glycan array binding signal (z-score),[20],1.4
same,glycan array binding signal (z-score),[21],-0.6
same,glycan array binding signal (z-score),[22],0.168
same,glycan array binding signal (z-score),[23],5.89
same,glycan array binding signal (z-score),[24],-0.647
same,glycan array binding signal (z-score),[25],-0.293
same,glycan array binding signal (z-score),Neu5Ac(a2-6)GalNAc,-0.484
same,glycan array binding signal (z-score),[26],-0.84
same,glycan array binding signal (z-score),[27],-0.494
same,glycan array binding signal (z-score),[28],0.294
same,glycan array binding signal (z-score),[29],0.025

# Copied from the results shown (6 entries):
binder,measurement,setting,value
B1,glycan array binding signal (z-score),[7],-0.792
same,glycan array binding signal (z-score),[8],-0.339
same,glycan array binding signal (z-score),[9],0.572
same,glycan array binding signal (z-score),[10],1.77
same,glycan array binding signal (z-score),[11],-1.08
same,glycan array binding signal (z-score),[12],-0.821
